The record followed here is article PMC4675091.

By UniProt entry, the sequences of proteins in these tests, tags left out.
UniProt P35612: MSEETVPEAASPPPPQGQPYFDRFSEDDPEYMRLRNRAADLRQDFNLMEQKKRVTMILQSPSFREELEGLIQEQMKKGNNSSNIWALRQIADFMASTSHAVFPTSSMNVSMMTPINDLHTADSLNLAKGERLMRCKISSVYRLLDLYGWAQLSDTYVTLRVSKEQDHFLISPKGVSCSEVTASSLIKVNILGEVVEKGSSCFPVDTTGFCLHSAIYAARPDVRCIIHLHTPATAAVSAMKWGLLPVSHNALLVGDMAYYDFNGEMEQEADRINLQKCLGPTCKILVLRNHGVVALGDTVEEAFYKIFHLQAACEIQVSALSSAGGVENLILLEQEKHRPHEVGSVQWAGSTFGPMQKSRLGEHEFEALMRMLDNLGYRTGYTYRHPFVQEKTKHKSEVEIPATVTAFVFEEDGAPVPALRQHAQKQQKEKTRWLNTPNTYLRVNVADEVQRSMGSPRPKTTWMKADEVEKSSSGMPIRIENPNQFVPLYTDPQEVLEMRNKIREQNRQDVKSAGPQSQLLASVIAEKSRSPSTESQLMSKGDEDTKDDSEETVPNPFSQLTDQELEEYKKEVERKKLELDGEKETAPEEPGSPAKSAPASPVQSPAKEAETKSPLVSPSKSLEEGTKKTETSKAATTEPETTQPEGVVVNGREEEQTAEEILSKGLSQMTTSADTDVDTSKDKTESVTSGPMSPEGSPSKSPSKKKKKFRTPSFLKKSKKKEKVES

No constants are given. Whether binding was seen depends on the method and setting. In cells and extracts the contact can be indirect. Some results given as binding are weak or reduced against the parent protein; the word gives no strength. For some of these results: Sequences can lack the tags named with a protein.

In experiment [1] the target is myc-tagged full-length β-adducin (human) (UniProt P35612). The experiment is described as follows: pull-down; beads coated with myc-β-adducin (from COS-7 lysate) incubated 2 h at 4 °C with purified recombinant DARPP-32 phosphorylated or not by CK2; immunoblot for DARPP-32; only the binder purified. (Immunoblotting shows a protein as a band on a membrane.)
Experiment [2] addresses T1, purified rat DARPP-32 (rat) (UniProt Q6J4I0).
T1 sequence: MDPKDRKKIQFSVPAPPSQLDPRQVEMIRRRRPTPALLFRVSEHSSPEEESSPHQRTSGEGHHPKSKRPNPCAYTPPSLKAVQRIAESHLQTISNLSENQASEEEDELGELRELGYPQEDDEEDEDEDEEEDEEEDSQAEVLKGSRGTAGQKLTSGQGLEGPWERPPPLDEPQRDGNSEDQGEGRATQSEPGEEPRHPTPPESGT
The experiment is described as follows: pull-down; Sepharose coupled to purified recombinant DARPP-32 or casein, rat striatal lysate; eluted with 150 mM NaCl; immunoblot for β-adducin; only the target purified.

For experiment [3], the target named is T2, DARPP-32-GFP (BAC transgenic mice) (mouse) (UniProt Q60829).
T2 sequence: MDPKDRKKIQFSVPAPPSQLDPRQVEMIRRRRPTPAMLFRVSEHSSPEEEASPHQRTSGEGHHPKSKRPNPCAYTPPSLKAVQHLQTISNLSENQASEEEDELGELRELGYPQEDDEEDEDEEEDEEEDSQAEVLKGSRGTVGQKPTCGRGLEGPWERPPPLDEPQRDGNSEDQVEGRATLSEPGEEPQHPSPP
The experiment is described as follows: co-IP; striatal lysates (RIPA buffer) of DARPP-32-GFP transgenic mice and WT littermates; GFP-trap resin, 2 h at 4 °C; immunoblot for β-adducin.

B1: purified recombinant DARPP-32 phosphorylated by CK2 (protein, UniProt Q6J4I0 1-205)
chain: T1 sequence
modifications: phosphoserine at Ser97 (by CK2)
Take B1: in experiment [1], the binding result was “binds”.

B2: purified rat DARPP-32 (protein, UniProt Q6J4I0 1-205)
chain: T1 sequence
As for B2, the binding entry in experiment [1] was “binds”.

B3: β-adducin (rat striatal lysate) (protein, UniProt Q05764 1-725)
chain: MSEDTVPEAASPPPSQGQHYFDRFSEDDPEYLRLRNRAADLRQDFNLMEQKKRVTMILQSPSFREELEGLIQEQMKKGNNSSNIWALRQIADFMASTSHAVFPASSMNFSMMTPINDLHTADSLNLAKGERLMRCKISSVYRLLDLYGWAQLSDTYVTLRVSKEQDHFLISPKGVSCSEVTASSLIKVNILGEVVEKGSSCFPVDTTGFSLHSAIYAARPDVRCAIHLHTPATAAVSAMKCGLLPVSHNALLVGDMAYYDFNGEMEQEADRINLQKCLGPTCKILVLRNHGMVALGDTVEEAFYKVFHLQAACEVQVSALSSAGGTENLILLEQEKHRPHEVGSVQWAGSTFGPMQKSRLGEHEFEALMRMLDNLGYRTGYTYRHPFVQEKTKHKSEVEIPATVTAFVFEEDGVPVPALRQHAQKQQKEKTRWLNTPNTYLRVNVADEVQRNMGSPRPKTTWMKADEVEKSSSGMPIRIENPNQFVPLYTDPQEVLDMRNKIREQNRQDIKSAGPQSQLLASVIAEKSRSPSTESQLASKGDADTKDELEETVPNPFSQLTDQELEEYKKEVERKKLEQEQEGEKDAATEEPGSPVKSTPASPVQSPTRAGTKSPAVSPSKASEDAKKTEVSEANTEPEPEKPEGVVVNGKEEEPCVEEVLSKGPGQMTTNADTDGDSYKDKTESVTSGPLSPEGSPSKSPSKKKKKFRTPSFLKKSKKKEKVES
B3: in experiment [2], the binding entry was “binds”.

B4: β-adducin (mouse striatal lysate) (protein, UniProt Q9QYB8 1-725)
chain: MSEDTVPEAASPPPSQGQHYFDRFSEDDPEYLRLRNRAADLRQDFNLMEQKKRVTMILQSPSFREELEGLIQEQMKKGNNSSNIWALRQIADFMASTSHAVFPASSMNFSMMTPINDLHTADSLNLAKGERLMRCKISSVYRLLDLYGWAQLSDTYVTLRVSKEQDHFLISPKGVSCSEVTASSLIKVNILGEVVEKGSSCFPVDTTGFSLHSAIYAARPDVRCAIHLHTPATAAVSAMKCGLLPVSHNALLVGDMAYYDFNGEMEQEADRINLQKCLGPTCKILVLRNHGMVALGDTVEEAFYKVFHLQAACEVQVSALSSAGGTENLILLEQEKHRPHEVGSVQWAGSTFGPMQKSRLGEHEFEALMRMLDNLGYRTGYTYRHPFVQEKTKHKSEVEIPATVTAFVFEEDGVPVPALRQHAQKQQKEKTRWLNTPNTYLRVNVADEVQRNMGSPRPKTTWMKADEVEKSSSGMPIRIENPNQFVPLYTDPQEVLDMRNKIREQNRQDIKSAGPQSQLLASVIAEKSRSPSTESQLMSKGDADTKDESEETVPNPFSQLTDQELEEYKKEVERKKLEQEQEGEKDIATEKPGSPVKSTPASPVQSPSKAGTKSPAVSPSKTSEDTKKTEVSEANTEPEPVKPEGLVVNGKEEEPSVEEALSKGLGQMTTNADTDGDSYKDKTESVTSGPLSPEGSPSKSPSKKKKKFRTPSFLKKSKKKEKVES
B4: the binding result in experiment [3] is on record as “binds”.
